Measured values reported in article PMC5636194 (Journal of nanomedicine & nanotechnology, 2017).

What was measured:
Type in all cases: cell-based
T98G cells [1] = assay: Cell viability (calcein AM); settings: 10 µM, 24, 72 and 144 hours
Description: (§1) U87 and T98G cells were seeded at 750 cells/well in 100 µL DMEM high glucose with pyruvate (10% FBS and 1% Pen/Strep) in a black, 96-well flat-bottomed plate, and allowed to attached overnight. […] The next morning, the plates were washed with 200 µL/well 1X PBS, which was removed and replaced with 95 µL calcein AM reagent at 1:1000 dilution in 1X PBS.

U87 cells [2] = assay: Cell viability (calcein AM); settings: 10 µM, 24, 72 and 144 hours
Description: as §1

T98G cells [3] = assay: Liquid colony formation assay (4 weeks); settings: 10 µM
Description: (§2) Cells were seeded into 6-well culture plates (Falcon) at a concentration of 50 cells/well in 1 mL DMEM high glucose with pyruvate (Gibco), 10% FBS, and 1% Pen/Strep. Treatments were added to each well to obtain a pre-determined final concentration in 2 mL/well total volume. Plates were incubated for 4 weeks undisturbed, and only carefully received a media change at week 3 with or without drug treatments if colonies were not visible. Following completion of the 4-week incubation period, colonies were stained as previously described. […] Stained colonies were counted, with the number and size documented.

U87 cells [4] = assay: Liquid colony formation assay (4 weeks); settings: regardless of treatment concentration
Description: as §2

In the case of `CCCCCCCCC=CCCCCCCCC(=O)[O-].CN(C)c1ccc2nc3ccc(=[N+](C)C)cc-3sc2c1` [MBOS, methylene blue oleate salt], the “Cell viability over time course” value (T98G cells [1]) is reported as “no significant reduction in T98G cell viability until 144 hours”, the “Cell viability over time course” value (U87 cells [2]) is reported as “reduction in cell survival not seen until 144 hours” and the “Average colony size compared to control” value (T98G cells [3]) is reported as “significantly increased”. For the same compound, the “Colony size and number of colonies compared to untreated cells” value (U87 cells [4]) was “little to no difference”.
